Source: the supplement of paper PMC10849652
The list shows a part of the results.

The chains behind the UniProt entries cited, without tags or fusion partners. Where a name states a change or a piece, a line headed by the entry shows the natural chain unless it says otherwise.
UniProt P57105: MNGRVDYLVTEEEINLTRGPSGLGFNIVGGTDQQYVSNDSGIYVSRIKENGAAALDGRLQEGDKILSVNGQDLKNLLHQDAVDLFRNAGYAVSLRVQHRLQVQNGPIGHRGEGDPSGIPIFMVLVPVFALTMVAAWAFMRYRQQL
UniProt Q9H7L9: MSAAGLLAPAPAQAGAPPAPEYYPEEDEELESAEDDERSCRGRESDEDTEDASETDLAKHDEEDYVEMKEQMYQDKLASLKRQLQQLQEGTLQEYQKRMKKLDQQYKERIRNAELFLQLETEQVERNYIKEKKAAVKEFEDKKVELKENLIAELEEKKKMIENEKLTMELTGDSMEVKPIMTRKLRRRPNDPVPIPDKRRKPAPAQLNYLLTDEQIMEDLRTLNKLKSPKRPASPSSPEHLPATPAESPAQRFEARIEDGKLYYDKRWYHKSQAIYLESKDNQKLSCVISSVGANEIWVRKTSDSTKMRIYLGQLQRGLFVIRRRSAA
UniProt O60506: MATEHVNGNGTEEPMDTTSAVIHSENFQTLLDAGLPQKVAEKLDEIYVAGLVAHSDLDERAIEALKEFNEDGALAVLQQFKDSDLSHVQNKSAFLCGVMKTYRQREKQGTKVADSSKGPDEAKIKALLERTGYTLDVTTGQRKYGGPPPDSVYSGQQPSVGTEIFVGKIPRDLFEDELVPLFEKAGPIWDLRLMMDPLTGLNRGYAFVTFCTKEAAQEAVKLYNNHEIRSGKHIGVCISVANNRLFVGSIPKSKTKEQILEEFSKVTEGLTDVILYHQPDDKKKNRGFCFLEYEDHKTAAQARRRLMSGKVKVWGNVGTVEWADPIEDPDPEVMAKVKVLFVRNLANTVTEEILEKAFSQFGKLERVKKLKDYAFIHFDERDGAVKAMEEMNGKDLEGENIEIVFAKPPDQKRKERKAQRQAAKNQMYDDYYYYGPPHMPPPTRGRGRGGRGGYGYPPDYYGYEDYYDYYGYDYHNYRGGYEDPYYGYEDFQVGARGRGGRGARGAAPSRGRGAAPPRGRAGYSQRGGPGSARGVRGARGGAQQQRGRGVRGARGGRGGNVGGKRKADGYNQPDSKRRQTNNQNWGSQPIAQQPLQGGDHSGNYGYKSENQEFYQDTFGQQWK
UniProt O43761: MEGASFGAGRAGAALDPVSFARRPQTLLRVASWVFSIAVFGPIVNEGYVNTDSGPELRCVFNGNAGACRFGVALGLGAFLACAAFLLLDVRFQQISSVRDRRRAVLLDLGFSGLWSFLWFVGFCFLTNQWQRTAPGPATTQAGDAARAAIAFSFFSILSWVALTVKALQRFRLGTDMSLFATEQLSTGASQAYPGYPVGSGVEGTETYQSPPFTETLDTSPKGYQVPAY
UniProt Q96I99: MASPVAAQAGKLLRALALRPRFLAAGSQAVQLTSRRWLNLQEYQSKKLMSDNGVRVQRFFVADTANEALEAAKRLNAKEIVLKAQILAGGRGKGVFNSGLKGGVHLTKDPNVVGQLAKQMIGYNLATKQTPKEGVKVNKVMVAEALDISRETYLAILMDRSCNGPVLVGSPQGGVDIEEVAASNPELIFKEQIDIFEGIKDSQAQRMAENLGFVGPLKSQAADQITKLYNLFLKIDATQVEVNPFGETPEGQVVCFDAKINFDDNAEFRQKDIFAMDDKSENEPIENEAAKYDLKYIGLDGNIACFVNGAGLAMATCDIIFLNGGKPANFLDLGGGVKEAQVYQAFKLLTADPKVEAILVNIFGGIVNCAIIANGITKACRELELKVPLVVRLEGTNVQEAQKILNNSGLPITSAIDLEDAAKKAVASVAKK
UniProt P53597: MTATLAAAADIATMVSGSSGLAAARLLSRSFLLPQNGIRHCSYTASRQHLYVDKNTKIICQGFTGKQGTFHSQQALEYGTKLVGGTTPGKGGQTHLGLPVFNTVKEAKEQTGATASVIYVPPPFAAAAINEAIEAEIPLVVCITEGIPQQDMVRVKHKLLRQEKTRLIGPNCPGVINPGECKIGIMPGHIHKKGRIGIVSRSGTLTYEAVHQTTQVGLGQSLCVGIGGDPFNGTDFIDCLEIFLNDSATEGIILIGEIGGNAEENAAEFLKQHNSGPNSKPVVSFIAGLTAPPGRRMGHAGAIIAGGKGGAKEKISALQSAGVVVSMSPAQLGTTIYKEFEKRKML
UniProt Q9NRP7: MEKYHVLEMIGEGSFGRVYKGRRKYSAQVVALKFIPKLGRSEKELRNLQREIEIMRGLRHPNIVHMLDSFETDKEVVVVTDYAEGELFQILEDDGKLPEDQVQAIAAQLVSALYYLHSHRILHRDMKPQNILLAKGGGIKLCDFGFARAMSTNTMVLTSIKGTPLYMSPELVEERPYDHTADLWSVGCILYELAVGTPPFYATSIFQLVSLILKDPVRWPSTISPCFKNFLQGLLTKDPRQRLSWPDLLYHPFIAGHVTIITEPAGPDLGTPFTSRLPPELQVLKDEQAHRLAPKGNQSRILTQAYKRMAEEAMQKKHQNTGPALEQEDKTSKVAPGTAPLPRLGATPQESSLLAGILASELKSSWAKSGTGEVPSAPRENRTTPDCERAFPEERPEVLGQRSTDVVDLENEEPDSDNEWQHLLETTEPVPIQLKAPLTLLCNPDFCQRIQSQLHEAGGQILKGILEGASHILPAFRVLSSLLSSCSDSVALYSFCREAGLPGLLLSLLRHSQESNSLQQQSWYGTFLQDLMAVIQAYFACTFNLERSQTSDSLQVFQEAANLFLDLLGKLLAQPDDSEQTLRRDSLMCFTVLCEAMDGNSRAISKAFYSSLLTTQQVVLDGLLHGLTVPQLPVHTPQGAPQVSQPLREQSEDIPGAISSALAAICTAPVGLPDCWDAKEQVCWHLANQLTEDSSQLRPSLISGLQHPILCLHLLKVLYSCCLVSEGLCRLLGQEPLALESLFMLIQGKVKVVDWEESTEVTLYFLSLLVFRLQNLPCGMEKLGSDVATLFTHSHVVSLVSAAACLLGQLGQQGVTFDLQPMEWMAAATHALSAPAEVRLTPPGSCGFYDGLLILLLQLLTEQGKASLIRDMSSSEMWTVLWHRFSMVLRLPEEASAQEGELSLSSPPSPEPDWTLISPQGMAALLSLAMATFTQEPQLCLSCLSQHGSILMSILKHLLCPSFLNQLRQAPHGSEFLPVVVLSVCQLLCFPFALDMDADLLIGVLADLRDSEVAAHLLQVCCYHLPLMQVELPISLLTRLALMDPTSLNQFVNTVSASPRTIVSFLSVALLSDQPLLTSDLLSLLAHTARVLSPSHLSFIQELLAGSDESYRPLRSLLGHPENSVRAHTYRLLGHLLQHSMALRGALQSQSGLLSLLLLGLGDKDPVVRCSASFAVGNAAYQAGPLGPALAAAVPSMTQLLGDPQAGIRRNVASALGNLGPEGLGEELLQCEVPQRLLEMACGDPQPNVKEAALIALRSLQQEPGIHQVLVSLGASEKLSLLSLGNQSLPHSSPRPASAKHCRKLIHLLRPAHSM
UniProt Q13188: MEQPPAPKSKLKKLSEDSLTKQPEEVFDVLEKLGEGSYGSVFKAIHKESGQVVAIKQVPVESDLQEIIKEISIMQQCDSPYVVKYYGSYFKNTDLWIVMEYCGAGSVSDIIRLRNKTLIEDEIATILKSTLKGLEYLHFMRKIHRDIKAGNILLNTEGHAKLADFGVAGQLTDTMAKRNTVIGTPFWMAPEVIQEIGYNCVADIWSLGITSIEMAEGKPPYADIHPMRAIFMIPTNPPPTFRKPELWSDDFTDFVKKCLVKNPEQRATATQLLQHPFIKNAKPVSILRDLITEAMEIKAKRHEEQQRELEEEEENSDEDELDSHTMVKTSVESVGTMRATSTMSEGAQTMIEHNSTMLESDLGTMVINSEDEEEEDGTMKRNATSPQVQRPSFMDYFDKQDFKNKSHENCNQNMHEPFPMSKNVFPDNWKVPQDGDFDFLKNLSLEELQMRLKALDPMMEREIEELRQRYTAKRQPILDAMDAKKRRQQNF
UniProt P61956, whole entry, looked up: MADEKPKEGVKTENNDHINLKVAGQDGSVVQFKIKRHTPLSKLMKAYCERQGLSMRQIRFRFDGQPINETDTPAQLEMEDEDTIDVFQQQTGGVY
UniProt P56962: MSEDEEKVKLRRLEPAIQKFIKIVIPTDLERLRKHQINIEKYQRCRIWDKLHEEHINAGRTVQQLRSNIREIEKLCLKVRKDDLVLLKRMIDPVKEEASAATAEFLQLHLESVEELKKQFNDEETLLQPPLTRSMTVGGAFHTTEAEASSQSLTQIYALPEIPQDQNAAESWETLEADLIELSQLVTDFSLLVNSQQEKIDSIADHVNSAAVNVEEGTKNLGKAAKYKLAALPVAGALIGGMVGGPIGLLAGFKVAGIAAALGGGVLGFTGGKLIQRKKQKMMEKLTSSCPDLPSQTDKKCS
UniProt O14662: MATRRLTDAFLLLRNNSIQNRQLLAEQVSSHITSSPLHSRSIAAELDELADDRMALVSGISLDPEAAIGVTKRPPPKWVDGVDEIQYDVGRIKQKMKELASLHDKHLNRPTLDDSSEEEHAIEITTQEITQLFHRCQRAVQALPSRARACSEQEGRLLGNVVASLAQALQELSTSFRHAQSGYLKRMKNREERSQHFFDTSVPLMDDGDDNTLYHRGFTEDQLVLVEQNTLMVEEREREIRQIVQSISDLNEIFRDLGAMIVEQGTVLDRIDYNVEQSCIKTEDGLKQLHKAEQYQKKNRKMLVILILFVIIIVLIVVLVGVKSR
UniProt Q9NZ72: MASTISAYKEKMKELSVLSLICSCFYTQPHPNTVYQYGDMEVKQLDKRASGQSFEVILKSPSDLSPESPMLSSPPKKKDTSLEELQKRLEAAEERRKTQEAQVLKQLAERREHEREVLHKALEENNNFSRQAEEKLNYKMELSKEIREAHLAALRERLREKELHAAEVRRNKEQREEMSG
UniProt Q9Y2Z0: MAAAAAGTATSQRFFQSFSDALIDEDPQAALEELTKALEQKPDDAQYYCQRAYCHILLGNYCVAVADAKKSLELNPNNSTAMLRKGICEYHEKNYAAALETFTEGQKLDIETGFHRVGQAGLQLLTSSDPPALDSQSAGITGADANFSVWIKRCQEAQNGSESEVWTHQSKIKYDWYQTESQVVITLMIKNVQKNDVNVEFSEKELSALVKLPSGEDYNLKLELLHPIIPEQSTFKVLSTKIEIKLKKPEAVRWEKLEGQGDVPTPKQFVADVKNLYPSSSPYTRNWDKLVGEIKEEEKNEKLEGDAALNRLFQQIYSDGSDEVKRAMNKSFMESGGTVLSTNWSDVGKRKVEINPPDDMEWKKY
UniProt Q9H169: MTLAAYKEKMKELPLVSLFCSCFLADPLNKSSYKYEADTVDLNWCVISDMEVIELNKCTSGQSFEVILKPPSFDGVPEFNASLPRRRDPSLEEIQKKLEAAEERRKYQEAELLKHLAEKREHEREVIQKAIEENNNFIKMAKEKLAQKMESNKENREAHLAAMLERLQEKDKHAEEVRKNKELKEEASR
UniProt Q96A49: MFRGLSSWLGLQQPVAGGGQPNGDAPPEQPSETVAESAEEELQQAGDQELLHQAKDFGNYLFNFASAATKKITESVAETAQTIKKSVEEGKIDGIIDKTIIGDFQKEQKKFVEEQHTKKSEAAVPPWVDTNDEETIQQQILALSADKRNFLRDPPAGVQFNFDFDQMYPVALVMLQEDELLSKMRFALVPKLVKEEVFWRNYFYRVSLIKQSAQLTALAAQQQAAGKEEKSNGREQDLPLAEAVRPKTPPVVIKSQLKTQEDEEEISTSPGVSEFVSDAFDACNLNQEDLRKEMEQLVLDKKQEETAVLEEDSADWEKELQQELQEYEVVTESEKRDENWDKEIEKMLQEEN
UniProt Q15833: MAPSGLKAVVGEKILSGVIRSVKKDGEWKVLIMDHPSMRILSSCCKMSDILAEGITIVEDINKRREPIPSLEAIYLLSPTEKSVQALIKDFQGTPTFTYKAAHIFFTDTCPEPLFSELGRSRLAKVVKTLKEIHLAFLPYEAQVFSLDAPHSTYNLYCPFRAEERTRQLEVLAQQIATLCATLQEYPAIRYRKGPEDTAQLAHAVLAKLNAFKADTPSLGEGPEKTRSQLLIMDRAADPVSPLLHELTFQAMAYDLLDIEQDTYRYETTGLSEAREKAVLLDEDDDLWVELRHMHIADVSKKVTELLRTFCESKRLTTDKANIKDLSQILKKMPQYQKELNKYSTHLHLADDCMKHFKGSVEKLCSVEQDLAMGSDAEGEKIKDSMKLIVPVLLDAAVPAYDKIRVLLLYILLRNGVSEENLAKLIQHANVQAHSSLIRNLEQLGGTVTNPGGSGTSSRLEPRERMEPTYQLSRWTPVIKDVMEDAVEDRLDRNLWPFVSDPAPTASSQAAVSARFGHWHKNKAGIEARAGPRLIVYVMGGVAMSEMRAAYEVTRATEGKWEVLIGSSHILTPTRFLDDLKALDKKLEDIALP
UniProt Q9UNK0: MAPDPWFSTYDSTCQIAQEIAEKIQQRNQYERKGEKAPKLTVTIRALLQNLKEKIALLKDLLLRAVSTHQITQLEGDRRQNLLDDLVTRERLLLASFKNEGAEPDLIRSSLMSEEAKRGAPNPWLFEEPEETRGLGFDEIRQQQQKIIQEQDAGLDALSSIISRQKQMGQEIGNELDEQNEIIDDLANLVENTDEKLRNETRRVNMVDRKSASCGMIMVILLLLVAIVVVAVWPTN

Experiments:
Assay in all cases: log2 fold change, soluble protein after heating vs DMSO (PISA); higher = thermal stabilisation; K562 lysate, 10 uM; active = over 0.2 and 3.5 SD of the protein, either way, in both replicates (recomputed)
[1] = compound: C1=CC=C(C=C1)[C@H](COC2=CC3=C(C=C2)NC(=O)N3)NC(=O)C4=CC=CN(C4=O)CC5=CC(=C(C=C5)F)F
In short: (§1)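 Soluble protein was defined as the supernatant remaining after 21,000xg for 90 min, following pooling of heated aliquots and adjustment to 0.5% NP-40 at 4°C. Before that, crude K562 extract at 1 mg/mL protein in PBS pH 7.4 with 1 mM MgCl2 was treated with 10 μM compound for 30 min and heated for 3 min across 48°C-58°C. Quantification used TMTpro 16plex LC-MS/MS with channel sums equalised, and values are log-two fold changes in thermal stability relative to solvent controls from duplicates.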

[2] = compound: CC1=C(SC2=C1C(=N[C@H](C3=NN=C(N32)C)CC(=O)N)C4=CC=C(C=C4)Cl)C
In short: as §1

[3] = compound: CC1=C2C(=CC=C1)N=C(N(C2=O)C3=CC=CC=C3C)CN4C=NC5=C(N=CN=C54)N
In short: as §1

[4] = compound: Cc1sc2c(c1C)C(c1ccc(Cl)cc1)=N[C@@H](CC(=O)OC(C)(C)C)c1nnc(C)n1-2
In short: as §1

[5] = compound: c1ccc([C@@H]2C[C@H]2NC2CCNCC2)cc1
In short: as §1

Measured: log2 fold change

SYNJ2BP (UniProt P57105)
inactive: [1] 0.125 | [2] -0.294 | [3] -0.007 | [4] 0.026

SYNE2 isoform 2 (UniProt Q8WXH0)
inactive: [1] -0.037 | [2] 0.044 | [3] 0.02 | [4] -0.065 | [5] -0.416

SYF2 (UniProt O95926)
inactive: [1] 0.021 | [2] -0.102 | [3] 0.001 | [4] 0.015 | [5] -0.024

SUB1 (UniProt P53999)
inactive: [1] 0.014 | [2] 0 | [3] -0.004 | [4] 0 | [5] -0.071

SUDS3 (UniProt Q9H7L9)
inactive: [1] 0.008 | [2] -0.035 | [3] 0.027 | [4] -0.027 | [5] -0.052

SYNCRIP (UniProt O60506)
inactive: [1] -0.003 | [2] 0.014 | [3] -0.01 | [4] 0.029 | [5] 0.032

STT3B (UniProt Q8TCJ2)
inactive: [1] 0.042 | [2] -0.087 | [3] -0.021 | [4] -0.068 | [5] -0.119

Taken from the entries so far (2 entries):
SUB1 (UniProt P53999)
inactive: [1] 0.014 | [2] 0 | [3] -0.004 | [4] 0 | [5] -0.071

SUDS3 (UniProt Q9H7L9)
inactive: [1] 0.008 | [2] -0.035 | [3] 0.027 | [4] -0.027 | [5] -0.052

Next part

SYNGR3 (UniProt O43761)
inactive: [1] 0.077 | [2] -0.04

SUCLG2 (UniProt Q96I99)
inactive: [1] 0.016 | [2] 0.049 | [3] 0.019 | [4] 0.033 | [5] 0.036

SUCLG1 (UniProt P53597)
inactive: [1] 0.044 | [2] 0.021 | [3] 0.011 | [4] -0.012 | [5] 0.08

STK36 (UniProt Q9NRP7)
inactive: [1] -0.014 | [2] 0.174 | [3] 0.163 | [4] -0.43 | [5] -0.42

STK3 isoform 2 (UniProt Q13188)
inactive: [1] -0.031 | [2] -0.042 | [3] -0.108 | [4] 0.01 | [5] -0.073

SUMO2 (UniProt P61956)
inactive: [1] 0.094 | [2] -0.13 | [3] -0.019 | [4] -0.09 | [5] -0.017

STX17 (UniProt P56962)
inactive: [1] 0.038 | [2] 0.069 | [3] -0.025 | [4] -0.086 | [5] 0.006

SYNJ2 (UniProt O15056)
inactive: [1] -0.051 | [2] -0.115 | [3] 0.115 | [4] -0.048 | [5] 0.031

SYNE1 (UniProt Q8NF91)
inactive: [1] 0.041 | [2] -0.002 | [3] 0.091 | [4] -0.1 | [5] -0.056

STX16 isoform 2 (UniProt O14662)
inactive: [1] -0.007 | [2] 0.029 | [3] -0.006 | [4] -0.021 | [5] 0.027

STMN3 (UniProt Q9NZ72)
inactive: [1] 0.046 | [2] -0.053 | [3] 0.065 | [4] -0.061

SUGT1 isoform 2 (UniProt Q9Y2Z0)
inactive: [1] 0.202 | [2] -0.068 | [3] 0.042 | [4] -0.034

SYP (UniProt P08247)
inactive: [1] -0.086 | [2] 0.009 | [3] 0.034 | [4] -0.08 | [5] -0.082

STMN4 isoform 2 (UniProt Q9H169)
inactive: [1] -0.005 | [2] 0.031 | [3] -0.041 | [4] 0.029 | [5] 0.055

SUPT4H1 (UniProt P63272)
inactive: [1] -0.008 | [2] 0.035 | [3] 0.029 | [4] 0.023 | [5] 0.038

SYAP1 (UniProt Q96A49)
inactive: [1] 0.154 | [2] -0.058 | [3] -0.015 | [4] 0.019 | [5] 0.026

STXBP2 (UniProt Q15833)
inactive: [1] -0.036 | [2] 0.007 | [3] -0.011 | [4] -0.002 | [5] 0.064

STX8 (UniProt Q9UNK0)
inactive: [1] 0.012 | [2] -0.051 | [3] 0.036 | [4] 0.013 | [5] 0.038
